Laboratory results: PubChem BioAssay AID1259424 (University of Nebraska Medical Center, 2018)

Screen: 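Rank knockdowns across the genome by resemblance to the KSR1 depletion profile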 (primary screen)
Cell system: human HCT116 colon cancer cells
Knock-down reagent: siRNA pool against human genes, 50 nM
Measured: 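Six signature mRNAs by branched-DNA multiplex assay, scaled to two housekeeping genes and non-targeting median, log2; matched to mean KSR1 knockdown profile by Pearson correlation and euclidean distance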
Direction: mean correlation with KSR1 profile: higher = expression change more like KSR1 knockdown; mean distance from KSR1 profile: higher = expression change less like KSR1 knockdown
The whole screen tested about 14,000 reagents; shown is a random part of them. 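Higher correlation or smaller distance means closer resemblance to KSR1 loss; control wells, including KSR1 knockdowns, recur on many plates.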 Not all columns of the deposit are shown. No sequences are given here. Not stated in the record: the time to read-out.

Against RAG1, the values are mean correlation with KSR1 profile -0.079; mean distance from KSR1 profile 2.25.
With knock-down of TFAP2D, the record shows mean correlation with KSR1 profile 0.0116; mean distance from KSR1 profile 1.76.
GINS2 showed mean correlation with KSR1 profile -0.452; mean distance from KSR1 profile 3.6.
Against FAM174C, the values are mean correlation with KSR1 profile -0.771; mean distance from KSR1 profile 7.73.
Against FCRLA the deposit lists mean correlation with KSR1 profile -0.202; mean distance from KSR1 profile 1.45.
Against SOX6, the values are mean correlation with KSR1 profile 0.305; mean distance from KSR1 profile 2.73.
Silencing of MNDA gave: mean correlation with KSR1 profile 0.575; mean distance from KSR1 profile 1.55.
PPP3CC showed mean correlation with KSR1 profile -0.314; mean distance from KSR1 profile 3.08.
Silencing of CHST11 resulted in: mean correlation with KSR1 profile -0.309; mean distance from KSR1 profile 2.41.
With knock-down of DLG5 the results were mean correlation with KSR1 profile 0.507; mean distance from KSR1 profile 1.76.
For EIF4A3 the deposit lists mean correlation with KSR1 profile -0.584; mean distance from KSR1 profile 2.77.
For NDP, the entry reads mean correlation with KSR1 profile -0.0181; mean distance from KSR1 profile 2.61.

Limited to “mean distance from KSR1 profile” (2 entries from above):
PPP3CC: 3.08
CHST11: 2.41
